From paper PMC5931107, “Clinical pharmacodynamic/exposure characterisation of the multikinase inhibitor ilorasertib (ABT-348) in a phase 1 dose-escalation trial” (British Journal of Cancer, 2018)

Legend:
Assay type in all cases: in vivo, human
Aurora kinase B = experiment: pHH3 immunohistochemistry in skin punch biopsies; settings: exposure quintiles
VEGFR2 [1] = experiment: Plasma PlGF change from baseline (VEGFR2 inhibition biomarker); settings: quintiles of exposure (Cmax)
VEGFR2 [2] = experiment: Diastolic blood pressure change from baseline (VEGFR2 inhibition biomarker); settings: quintiles of exposure (Cmax)

Nc1ncc(-c2cnn(CCO)c2)c2scc(-c3ccc(NC(=O)Nc4cccc(F)c4)cc3)c12 [ilorasertib, Ilorasertib]
Exposure at maximum pHH3 inhibition (Aurora kinase B): at the highest exposure; also recorded: only in the two highest quintiles
Exposure at peak change in PlGF (VEGFR2 [1]): second quintile of exposure; also recorded: second plasma exposure quintile
Exposure at peak change in DBP (VEGFR2 [2]): second quintile of exposure; also recorded: second plasma exposure quintile

“Also recorded” adds a separate entry of the source.
